Measurements: article PMC4111604, “Structural Characterization of the Saccharomyces cerevisiae THO Complex by Small-Angle X-Ray Scattering” (PLoS ONE, 2014)
No constants are given. Whether binding was seen depends on the method and setting. For some of these results: Binding seen in cells or lysates may run through a third protein. Some binding calls cover weakened binding; strength is not graded here. Sequences can lack the tags named with a protein.

How the values were obtained:
[1] = target: T1, Mft1pΔC270-392 with C-terminal Strep II tag (THO4) (Saccharomyces cerevisiae) (UniProt P33441); assay: SEC-MALS; static light scattering (Zetasizer µV) inline with Superdex 200 GL 10/300, on purified co-expressed complexes; both purified
T1 sequence: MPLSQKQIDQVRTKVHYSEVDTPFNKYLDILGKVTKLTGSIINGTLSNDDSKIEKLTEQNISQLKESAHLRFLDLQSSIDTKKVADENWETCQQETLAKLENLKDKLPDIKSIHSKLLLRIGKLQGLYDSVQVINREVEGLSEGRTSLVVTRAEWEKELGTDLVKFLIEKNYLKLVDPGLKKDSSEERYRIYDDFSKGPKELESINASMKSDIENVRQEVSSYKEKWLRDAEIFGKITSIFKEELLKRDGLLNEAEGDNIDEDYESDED

[2] = target: T2, Mft1pΔC336-392 with C-terminal Strep II tag (THO3) (Saccharomyces cerevisiae) (UniProt P33441); assay: as above
T2 sequence: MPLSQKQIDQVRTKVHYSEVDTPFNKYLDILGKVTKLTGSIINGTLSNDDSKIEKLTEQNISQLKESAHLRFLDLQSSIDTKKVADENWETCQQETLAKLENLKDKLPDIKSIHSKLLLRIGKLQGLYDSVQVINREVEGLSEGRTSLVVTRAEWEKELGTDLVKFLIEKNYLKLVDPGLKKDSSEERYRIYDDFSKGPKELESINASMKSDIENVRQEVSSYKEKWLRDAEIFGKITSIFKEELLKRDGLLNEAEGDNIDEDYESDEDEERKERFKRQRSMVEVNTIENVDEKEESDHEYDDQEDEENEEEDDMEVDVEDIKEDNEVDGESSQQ

[3] = target: T2, Mft1pΔC336-392 with C-terminal Strep II tag (THO3) (Saccharomyces cerevisiae); assay: SAXS; purified proteins or co-expressed, co-purified complexes in solution; 50 mM Tris-Cl pH 8.0, 100 mM KCl, 5 mM MgCl2, 5 mM 2-mercaptoethanol; 10°C or 25°C; 3-6 concentrations between 7.8 and 0.15 mg/ml; homodimers told from measurements at low concentrations; both purified
[4] = target: T1, Mft1pΔC270-392 with C-terminal Strep II tag (THO4) (Saccharomyces cerevisiae); assay: pull-down; proteins co-expressed in E. coli Rosetta (DE3); clarified lysate on Ni-NTA magnetic agarose beads, then Strep-Tactin magnetic beads, eluates on Coomassie-stained SDS-PAGE, bands confirmed by mass spectrometry; small-scale and large-scale cultures; 4°C, 50 mM Tris-Cl pH 8.0, 300 mM KCl (wash 1 M KCl)
[5] = target: T2, Mft1pΔC336-392 with C-terminal Strep II tag (THO3) (Saccharomyces cerevisiae); assay: as above
[6] = target: T1, Mft1pΔC270-392 with C-terminal Strep II tag (THO4) (Saccharomyces cerevisiae); assay: SEC; co-expressed complexes purified by Strep-Tactin, Source 15Q anion exchange and Superdex 200 gel filtration (successive rounds to separate ternary from binary); 50 mM Tris-Cl pH 8.0, 100 mM KCl, 5 mM MgCl2, 5 mM 2-mercaptoethanol; densitometry of SDS-PAGE: equal stoichiometric amounts (data not shown); both purified
[7] = target: T2, Mft1pΔC336-392 with C-terminal Strep II tag (THO3) (Saccharomyces cerevisiae); assay: as above
[8] = target: T3, Mft1pΔC232-392 (TEV-cleavable C-terminal 8xHis tag) (Saccharomyces cerevisiae) (UniProt P33441); assay: SEC; co-expressed complexes purified by Ni-NTA (8xHis on Mft1p), TEV cleavage and second Ni-NTA, Source 15Q anion exchange and Superdex 200 gel filtration; Coomassie-stained SDS-PAGE; both purified
T3 sequence: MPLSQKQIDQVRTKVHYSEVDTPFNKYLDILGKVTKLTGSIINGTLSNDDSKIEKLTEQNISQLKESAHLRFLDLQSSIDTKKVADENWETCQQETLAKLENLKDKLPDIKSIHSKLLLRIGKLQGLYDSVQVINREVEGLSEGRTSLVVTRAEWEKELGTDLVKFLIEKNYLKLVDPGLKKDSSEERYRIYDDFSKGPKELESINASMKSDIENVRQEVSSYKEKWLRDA

[9] = target: T4, Mft1pΔC248-392 (TEV-cleavable C-terminal 8xHis tag) (Saccharomyces cerevisiae) (UniProt P33441); assay: as above
T4 sequence: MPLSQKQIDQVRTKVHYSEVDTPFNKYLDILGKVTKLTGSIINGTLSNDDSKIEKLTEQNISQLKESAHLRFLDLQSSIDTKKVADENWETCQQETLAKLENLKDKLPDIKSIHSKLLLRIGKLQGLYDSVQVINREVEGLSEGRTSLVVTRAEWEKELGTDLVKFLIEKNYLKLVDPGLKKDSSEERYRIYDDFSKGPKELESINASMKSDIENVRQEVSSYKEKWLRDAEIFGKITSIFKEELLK

[10] = target: T3, Mft1pΔC232-392 (TEV-cleavable C-terminal 8xHis tag) (Saccharomyces cerevisiae); assay: SAXS; purified proteins or co-expressed, co-purified complexes in solution; 50 mM Tris-Cl pH 8.0, 100 mM KCl, 5 mM MgCl2, 5 mM 2-mercaptoethanol; 10°C or 25°C; 3-6 concentrations between 7.8 and 0.15 mg/ml; homodimers told from measurements at low concentrations; both purified

Measured: binding

B1: Thp2p with N-terminal Strep II tag (THO3, THO4) (protein, UniProt O13539 1-261)
chain: MTKEEGRTYFESLCEEEQSLQESQTHLLNILDILSVLADPRSSDDLLTESLKKLPDLHRELINSSIRLRYDKYQTREAQLLEDTKTGRDVAAGVQNPKSISEYYSTFEHLNRDTLRYINLLKRLSVDLAKQVEVSDPSVTVYEMDKWVPSEKLQGILEQYCAPDTDIRGVDAQIKNYLDQIKMARAKFGLENKYSLKERLSTLTKELNHWRKEWDDIEMLMFGDDAHSMKKMIQKIDSLKSEINAPSESYPVDKEGDIVLE
not listed: [8] | [9] | [10]
binds: all other assays above

B2: Thp2p (bicistronic pETM-13 constructs with truncated Mft1p) (protein, UniProt O13539 1-261)
chain: MTKEEGRTYFESLCEEEQSLQESQTHLLNILDILSVLADPRSSDDLLTESLKKLPDLHRELINSSIRLRYDKYQTREAQLLEDTKTGRDVAAGVQNPKSISEYYSTFEHLNRDTLRYINLLKRLSVDLAKQVEVSDPSVTVYEMDKWVPSEKLQGILEQYCAPDTDIRGVDAQIKNYLDQIKMARAKFGLENKYSLKERLSTLTKELNHWRKEWDDIEMLMFGDDAHSMKKMIQKIDSLKSEINAPSESYPVDKEGDIVLE
binds: [8] | [9] | [10]

B3: Tho2pΔC1274-1597 with C-terminal Strep II tag (THO3) (domain or fragment, UniProt P53552 1-1273)
chain: MAEQTLLSKLNALSQKVIPPASPSQASILTEEVIRNWPERSKTLCSDFTALESNDEKEDWLRTLFIELFDFINKNDENSPLKLSDVASFTNELVNHERQVSQASIVGKMFIAVSSTVPNINDLTTISLCKLIPSLHEELFKFSWISSKLLNKEQTTLLRHLLKKSKYELKKYNLLVENSVGYGQLVALLILAYYDPDNFSKVSAYLKEIYHIMGKYSLDSIRTLDVILNVSSQFITEGYKFFIALLRKSDSWPSSHVANNSNYSSLNEGGNMIAANIISFNLSQYNEEVDKENYERYMDMCCILLKNGFVNFYSIWDNVKPEMEFLQEYIQNLETELEEESTKGVENPLAMAAALSTENETDEDNALVVNDDVNMKDKISEETNADIESKGKQKTQQDILLFGKIKLLERLLIHGCVIPVIHVLKQYPKVLYVSESLSRYLGRVFEYLLNPLYTSMTSSGESKDMATALMITRIDNGILAHKPRLIHKYKTHEPFESLELNSSYVFYYSEWNSNLTPFASVNDLFENSHIYLSIIGPYLGRIPTLLSKISRIGVADIQKNHGSESLHVTIDKWIDYVRKFIFPATSLLQNNPIATSEVYELMKFFPFEKRYFIYNEMMTKLSQDILPLKVSFNKAEREAKSILKALSIDTIAKESRRFAKLISTNPLASLVPAVKQIENYDKVSELVVYTTKYFNDFAYDVLQFVLLLRLTYNRPAVQFDGVNQAMWVQRLSIFIAGLAKNCPNMDISNIITYILKTLHNGNIIAVSILKELIITVGGIRDLNEVNMKQLLMLNSGSPLKQYARHLIYDFRDDNSVISSRLTSFFTDQSAISEIILLLYTLNLKANTQNSHYKILSTRCDEMNTLLWSFIELIKHCLKGKAFEENVLPFVELNNRFHLSTPWTFHIWRDYLDNQLNSNENFSIDELIEGAEFSDVDLTKISKDLFTTFWRLSLYDIHFDKSLYDERKNALSGENTGHMSNRKKHLIQNQIKDILVTGISHQRAFKKTSEFISEKSNVWNKDCGEDQIKIFLQNCVVPRVLFSPSDALFSSFFIFMAFRTENLMSILNTCITSNILKTLLFCCTSSEAGNLGLFFTDVLKKLEKMRLNGDFNDQASRKLYEWHSVITEQVIDLLSEKNYMSIRNGIEFMKHVTSVFPVVKAHIQLVYTTLEENLINEEREDIKLPSSALIGHLKARLKDALELDEFCTLTEEEAEQKRIREMELEEIKNYETACQNEQKQVALRKQLELNKSQRLQNDPPKSVASGSAGLNSKD
binds: [2] | [3] | [7]
